Experimental data: PubChem BioAssay AID1671195 (Yale University, 2021)
Test: 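Regulators of LDL receptor activity judged by labelled LDL uptake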 (primary screen). Cell system: human Huh7 hepatoma cells. Reagent: siRNA pool against human genes, 18 nM. Timing: about 2 to 2.5 days of knockdown, then 8 h LDL uptake. Conditions: DiI-labelled LDL at 30 µg/ml for 8 h, in lipoprotein-deficient serum medium. Read-out: 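Per-cell DiI-LDL intensity by automated imaging; well means scaled to the plate median and given as a robust z-score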. Scale: robust z-score: higher = more LDL uptake after knockdown. Call rule: 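Active when two or more replicates show a robust z-score above 2 or below -2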.
In all, the deposit lists about 22,000 reagents; shown is a random part of them. Of all reagents, about 1,510 (6.9%) are marked active. 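Active includes knockdowns raising or lowering LDL uptake; positive z-scores mean more uptake, negative mean less.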 Entries without a mark were called inactive.

target gene,"robust z-score, replicate 1","robust z-score, replicate 2","robust z-score, replicate 3"
PKLR,0.941,0.776,-0.129
TRIM51FP,0.68,0.417,0.671
NEXN-AS1,-1.45,-0.736,-1.14
PLXDC2,-0.839,-0.149,-0.161
GRXCR1,1.32,1.24,1.01
TCF3,1.51,1.36,2.6
ACTB,0.545,1.03,-0.142
MOCS1,-1.52,-1.36,-1.05
STX12,2.97 (active),3.58,6.61
RHOXF2,2.85 (active),2.24,2.22
FUS,1.91 (active),2.34,2.12
LRRC4C,0.0468,-0.54,-0.356
RSPH6A,0.298,0.25,-0.0219
RAG1,0.509,0.00582,0.814
OAS3,-0.239,1.7,-0.362
ROPN1,-0.144,-0.884,-0.679
TGOLN2,0.33,-1.3,0.815
LENG9,1.15,1.35,2.06
GAPDH,0.21,0.0143,0.781
EYA1,1.23,1.17,0.312
CRYM,-1.5,-0.648,-1.02
PODXL2,-0.955,-0.33,-1.34
VPS29,-0.663,0.631,-0.99
MAN1C1,-0.6,-0.467,-1.24
FAM221A,1.09,1.62,1.66
PXT1,-0.601,-0.467,-0.133
CELF6,0.566,-0.284,-0.265
PEX3,2.96 (active),2.12,3.43
MORN2,0.831,0.174,-0.0499
RBMXL2,-0.67,-0.273,-0.526
LOC390908 (retired record),-0.705,-0.077,-0.387
CPA6,0.961,0.903,0.306
CRYGA,-0.0212,0.963,0.519
C1orf115,-0.47,-0.821,-0.453
ELOVL4,2.58 (active),1.41,2.39
OR1L4,0.582,0.33,0.48
TIMM23B,-1.89,-1.31,-2.22
GLDC,-0.531,-0.569,-0.782
LOC729645,-1.06,-0.669,-0.878
ANGPTL8,1.59,0.5,1.57
POLR3C,0.675,-0.689,1.9

5 entries already listed, arranged by “robust z-score, replicate 2”, descending.
target gene,"robust z-score, replicate 1","robust z-score, replicate 2","robust z-score, replicate 3"
EYA1,1.23,1.17,0.312
VPS29,-0.663,0.631,-0.99
GAPDH,0.21,0.0143,0.781
PODXL2,-0.955,-0.33,-1.34
CRYM,-1.5,-0.648,-1.02

The listing continues:
target gene,"robust z-score, replicate 1","robust z-score, replicate 2","robust z-score, replicate 3"
FSD1,0.12,-0.25,1.69
CCNO,0.0862,1.38,1.75
LOC441952 (retired record),-2.13 (active),-2.17,-2.06
PRSS30P,-1.74,-1.08,-1.53
GPRASP2,-0.276,-0.412,-0.00521
RPL21P131,-0.627,-0.313,-0.376
PIANP,-0.645,-1.13,0.0471
TTC41P,-0.495,-0.214,-0.269
TIMM10B,-1.75,-1.45,-1.08
RPL5P11,-2.02 (active),-1.98,-1.71
LOC391807 (retired record),-1.15,-1.52,-1.35
CHMP2B,-1.1 (active),-2.17,-2.18
COQ7,-0.0437,-1.25,-0.621
ASB12,-1.59,-2.3,-1.84
P2RY4,0.0817,0.186,0.808
MANSC1,-1.05,1.18,-0.799
ANO3,0.425,0.934,0.5
EBF1,0.539,-0.967,0.486
TCERG1L,0.757,0.545,0.312
CFAP92,0.807,2.28,0.919
LOC439911 (retired record),-0.602,-0.161,-0.505
ZNF160,1.69,1.78,1.91
TRIM3,-0.335,-0.562,-0.888
PLAC4,4.99 (active),3.99,4.29
MPLKIP,1.8,1.1,2.84
PHF21A,-1.5,-1.58,-1.68
ADGRL3,-0.966,-1.12,-0.909
